# From the supplement of paper PMC8728848
# This is one part of the list.
# B1: SspB A3vp1 (Streptococcus gordonii), Q54186 (protein)
# chain: MTNEADYQAKLAAYQTELARVQKANADAKATYEKAVEDNKAKNAAIKAENEEIKQRNAVAKTDYEAKLAKYEADLAKYKKEFAAYTAALAEAESKKKQDGYLSEPRSQSLNFKSEPNAIRTIDSSVHQYGQQELDALVKSWGISPTNPDRKKSRAYSYFNAINSNNTYAKLVLEKDKPVDVTYTGLKNSSFNGKKISKVVYTYTLKETGFNDGTKMTMFASSDPTVTAWYNDYFTSTNINVKVKFYDEEGQLMNLTGGLVNFSSLNRGNGSGAIDKDAIESVRNFNGRYIPISGSSIKIHENNSAYADSSNAEKSLGARWNTSEWDTTSSPNNWYGAIVGEITQSEISFNMASSKSGNIWFAFNSNINAIGVPTKPVAPTAPTQPMYETEKPLEPAPVAPSYENEPTPPVKTPDQPEPSKPAAALEHHHHHH
# Tests used:
# Assay in all cases: glycan array binding signal (z-score within array); higher = stronger binding
# Conditions in all cases: glycan notation: IUPAC condensed, linker removed
# [1] = target: Gal(b1-2)Gal
# In short: (§1)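 Columns mapping to the same glycan were averaged after glycan names were converted to IUPAC-condensed notation. The data come from 3228 arrays in the Consortium for Functional Glycomics database, limited to those with an available protein sequence. Binding is reported as a within-array Z-score averaged across arrays of one protein sequence and across linkers.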
# [2] = target: Gal(b1-3)Gal
# In short: as §1
# [3] = target: Gal(b1-3)Gal(b1-4)GlcNAc
# In short: as §1
# [4] = target: Gal(b1-3)GalNAc
# In short: as §1
# [5] = target: Gal(b1-3)GalNAc(a1-3)[Fuc(a1-2)]Gal(b1-4)Glc
# In short: as §1
# [6] = target: Gal(b1-3)GalNAc(a1-3)[Fuc(a1-2)]Gal(b1-4)GlcNAc
# In short: as §1
# [7] = target: Gal(b1-3)GalNAc(b1-3)Gal
# In short: as §1
# [8] = target: Gal(b1-3)GalNAc(b1-3)Gal(a1-4)Gal(b1-4)Glc
# In short: as §1
# [9] = target: Gal(b1-3)GalNAc(b1-4)Gal(b1-4)Glc
# In short: as §1
# [10] = target: Gal(b1-3)GalNAc(b1-4)[Neu5Ac(a2-3)]Gal(b1-4)Glc
# In short: as §1
# [11] = target: Gal(b1-3)GlcNAc
# In short: as §1
# [12] = target: Gal(b1-3)GlcNAc(a1-3)Gal(b1-4)GlcNAc
# In short: as §1
# [13] = target: Gal(b1-3)GlcNAc(a1-6)Gal(b1-4)GlcNAc
# In short: as §1
# [14] = target: Gal(b1-3)GlcNAc(b1-2)Man
# In short: as §1
# [15] = target: Gal(b1-3)GlcNAc(b1-2)Man(a1-3)[Gal(b1-3)GlcNAc(b1-2)Man(a1-6)]Man(b1-4)GlcNAc(b1-4)GlcNAc
# In short: as §1
# [16] = target: Gal(b1-3)GlcNAc(b1-2)Man(a1-3)[Gal(b1-3)GlcNAc(b1-2)Man(a1-6)]Man(b1-4)GlcNAc(b1-4)[Fuc(a1-6)]GlcNAc
# In short: as §1
# [17] = target: Gal(b1-3)GlcNAc(b1-2)Man(a1-3)[GlcNAc(b1-4)][Gal(b1-3)GlcNAc(b1-2)Man(a1-6)]Man(b1-4)GlcNAc(b1-4)GlcNAc
# In short: as §1
# [18] = target: Gal(b1-3)GlcNAc(b1-2)[Gal(b1-3)GlcNAc(b1-6)]Man(a1-6)[Gal(b1-3)GlcNAc(b1-2)Man(a1-3)]Man(b1-4)GlcNAc(b1-4)GlcNAc
# In short: as §1
# [19] = target: Gal(b1-3)GlcNAc(b1-3)Gal(b1-3)GlcNAc
# In short: as §1
# [20] = target: Gal(b1-3)GlcNAc(b1-3)Gal(b1-4)Glc
# In short: as §1
# [21] = target: Gal(b1-3)GlcNAc(b1-3)Gal(b1-4)GlcNAc
# In short: as §1
# [22] = target: Gal(b1-3)GlcNAc(b1-3)Gal(b1-4)GlcNAc(b1-2)Man(a1-3)[Gal(b1-3)GlcNAc(b1-3)Gal(b1-4)GlcNAc(b1-2)Man(a1-6)]Man(b1-4)GlcNAc(b1-4)GlcNAc
# In short: as §1
# [23] = target: Gal(b1-3)GlcNAc(b1-3)Gal(b1-4)GlcNAc(b1-2)[Gal(b1-3)GlcNAc(b1-3)Gal(b1-4)GlcNAc(b1-6)]Man(a1-6)[Gal(b1-3)GlcNAc(b1-3)Gal(b1-4)GlcNAc(b1-2)Man(a1-3)]Man(b1-4)GlcNAc(b1-4)[Fuc(a1-6)]GlcNAc
# In short: as §1
# [24] = target: Gal(b1-3)GlcNAc(b1-3)Gal(b1-4)GlcNAc(b1-3)Gal(b1-4)GlcNAc(b1-2)[Gal(b1-3)GlcNAc(b1-3)Gal(b1-4)GlcNAc(b1-3)Gal(b1-4)GlcNAc(b1-6)]Man(a1-6)[Gal(b1-3)GlcNAc(b1-3)Gal(b1-4)GlcNAc(b1-3)Gal(b1-4)GlcNAc(b1-2)Man(a1-3)]Man(b1-4)GlcNAc(b1-4)[Fuc(a1-6)]GlcNAc
# In short: as §1
# [25] = target: Gal(b1-3)GlcNAc(b1-3)Gal(b1-4)GlcNAc(b1-6)[Gal(b1-3)GlcNAc(b1-3)]Gal(b1-4)Glc
# In short: as §1
# [26] = target: Gal(b1-3)GlcNAc(b1-3)Gal(b1-4)[Fuc(a1-3)]GlcNAc
# In short: as §1
# [27] = target: Gal(b1-3)GlcNAc(b1-3)Gal(b1-4)[Fuc(a1-3)]GlcNAc(b1-6)[Gal(b1-3)GlcNAc(b1-3)]Gal(b1-4)Glc
# In short: as §1
# [28] = target: Gal(b1-3)GlcNAc(b1-3)GalNAc
# In short: as §1
# [29] = target: Gal(b1-3)GlcNAc(b1-6)Gal(b1-4)GlcNAc
# In short: as §1
# [30] = target: Gal(b1-3)GlcNAc(b1-6)GalNAc
# In short: as §1
# [31] = target: Gal(b1-3)GlcNAc(b1-6)[Gal(b1-3)]GalNAc
# In short: as §1
# [32] = target: Gal(b1-3)GlcNAc6S
# In short: as §1
# [33] = target: Gal(b1-3)[Fuc(a1-4)]GlcNAc
# In short: as §1
# [34] = target: Gal(b1-3)[Fuc(a1-4)]GlcNAc(b1-2)Man
# In short: as §1
# [35] = target: Gal(b1-3)[Fuc(a1-4)]GlcNAc(b1-2)Man(a1-3)[Gal(b1-3)[Fuc(a1-4)]GlcNAc(b1-2)Man(a1-6)]Man(b1-4)GlcNAc(b1-4)[Fuc(a1-6)]GlcNAc
# In short: as §1
# [36] = target: Gal(b1-3)[Fuc(a1-4)]GlcNAc(b1-3)Gal(b1-3)[Fuc(a1-4)]GlcNAc
# In short: as §1
# [37] = target: Gal(b1-3)[Fuc(a1-4)]GlcNAc(b1-3)Gal(b1-4)[Fuc(a1-3)]GlcNAc
# In short: as §1
# [38] = target: Gal(b1-3)[Fuc(a1-4)]GlcNAc(b1-6)GalNAc
# In short: as §1
# [39] = target: Gal(b1-3)[GlcNAc(b1-6)]GalNAc
# In short: as §1
# [40] = target: Gal(b1-3)[Neu5Ac(a2-6)]GalNAc
# In short: as §1
# [41] = target: Gal(b1-3)[Neu5Ac(a2-6)]GlcNAc(b1-4)Gal(b1-4)Glc
# In short: as §1
# [42] = target: Gal(b1-3)[Neu5Ac(b2-6)]GalNAc
# In short: as §1
# [43] = target: Gal(b1-4)Gal
# In short: as §1
# [44] = target: Gal(b1-4)GalNAc(a1-3)[Fuc(a1-2)]Gal(b1-4)GlcNAc
# In short: as §1
# [45] = target: Gal(b1-4)GalNAc(b1-3)[Fuc(a1-2)]Gal(b1-4)GlcNAc
# In short: as §1
binder,measurement,setting,value
B1,glycan array binding signal (z-score),[1],-0.602
same,glycan array binding signal (z-score),[2],-0.282
same,glycan array binding signal (z-score),[3],0.679
same,glycan array binding signal (z-score),[4],-0.285
same,glycan array binding signal (z-score),[5],0.485
same,glycan array binding signal (z-score),[6],-0.984
same,glycan array binding signal (z-score),[7],0.434
same,glycan array binding signal (z-score),[8],1.92
same,glycan array binding signal (z-score),[9],-0.915
same,glycan array binding signal (z-score),[10],-0.461
same,glycan array binding signal (z-score),[11],-0.432
same,glycan array binding signal (z-score),[12],0.081
same,glycan array binding signal (z-score),[13],-0.305
same,glycan array binding signal (z-score),[14],0.698
same,glycan array binding signal (z-score),[15],2.64
same,glycan array binding signal (z-score),[16],1.42
same,glycan array binding signal (z-score),[17],1.02
same,glycan array binding signal (z-score),[18],1.46
same,glycan array binding signal (z-score),[19],0.122
same,glycan array binding signal (z-score),[20],-0.232
same,glycan array binding signal (z-score),[21],-0.438
same,glycan array binding signal (z-score),[22],0.853
same,glycan array binding signal (z-score),[23],1.11
same,glycan array binding signal (z-score),[24],2.53
same,glycan array binding signal (z-score),[25],-0.881
same,glycan array binding signal (z-score),[26],-0.421
same,glycan array binding signal (z-score),[27],-0.296
same,glycan array binding signal (z-score),[28],1.43
same,glycan array binding signal (z-score),[29],-0.659
same,glycan array binding signal (z-score),[30],-0.034
same,glycan array binding signal (z-score),[31],0.011
same,glycan array binding signal (z-score),[32],0.504
same,glycan array binding signal (z-score),[33],-0.514
same,glycan array binding signal (z-score),[34],-0.191
same,glycan array binding signal (z-score),[35],0.75
same,glycan array binding signal (z-score),[36],-1.17
same,glycan array binding signal (z-score),[37],-0.801
same,glycan array binding signal (z-score),[38],0.696
same,glycan array binding signal (z-score),[39],-0.11
same,glycan array binding signal (z-score),[40],0.056
same,glycan array binding signal (z-score),[41],-0.063
same,glycan array binding signal (z-score),[42],-0.723
same,glycan array binding signal (z-score),[43],-0.088
same,glycan array binding signal (z-score),[44],-1.24
same,glycan array binding signal (z-score),[45],-0.433

# A portion of the results above, for reference:
binder,measurement,setting,value
B1,glycan array binding signal (z-score),[23],1.11
same,glycan array binding signal (z-score),[24],2.53
